Reference: patent US11717508B2, “Compounds, compositions, and methods for inhibiting bacterial growth” (priority 2016, dated 2023)
Entries after “also recorded” stand apart in the source; their conditions may differ. Like-named read-outs stand apart in the source and are kept apart here. For some of these results: At least one structure is not confirmed: it was looked up by name or label, or the drawing left a doubt. Some results were stated once for a whole list of compounds, not compound by compound. Some ranges recur; such a range may be that of the whole group of compounds.

Legend:
[1] = test system: Mtb CDC1551
[2] = test system: DosR regulon genes (dosR, hspX and tgs1); test: NO and vitamin C sensitivity assays (RT-PCR); assay type: cell-based, Mycobacterium tuberculosis; details: pretreatment 24 h, induction 2 h
[3] = CDC1551, 40 μM, 10 days hypoxic shift down

| Compound | reduction of survival as compared to the DMSO control [1, 3] | inhibition of induction of DosR regulon (dosR, hspX, tgs1) by NO and vitamin C [2] | reduction of survival as compared to the DMSO control [1] |
| --- | --- | --- | --- |
| C[C@@H]1CC(C)(C)C[C@]2(C1)NC(=O)NC2=O (racemic) [HC102A, 7,7,9-trimethyl-1,3-diazaspiro[4.5]decane-2,4-dione] | 70-80% |  |  |
| C[C@H]1[C@@H](O)O[C@@H]2O[C@@]3(C)CC[C@H]4[C@H](C)CC[C@@H]1[C@@]24OO3 [DHA, dihydroartemisinin] | 70-80% | only weakly inhibited the induction; also recorded: had a little effect |  |
| O=C(Nc1cccc(O)c1)c1cccc(NC(=O)c2cccs2)c1 [HC103A, N-[3-[(3 hydroxyphenyl)carbamoyl]phenyl]thiophene-2-carboxamide] |  |  | 70-80% |
